## Results of single-concentration screens

Source: ChEMBL document CHEMBL3988442, “University of Dundee, Small-Polar-MMV Screening Library” (2021).

Each number is a percent effect as filed.
The record does not define 0% and 100%; most values in the screen are far below 50% and negative numbers occur (in some assays of this library far below -100).
The compounds are a random part of those screened.
Two or more numbers in one place are separate tests of the same structure; such repeats can differ widely.

A: 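Whole-cell growth test on Mycobacterium tuberculosis, read after 3 days in glucose-containing 7H9 medium; the read-out is not stated. Concentration: 50 µM. The record gives no direction; compounds that gave an IC50 in retests scored well above the rest, so higher reads as more growth inhibition. About 69,000 compounds were tested under these conditions; 1.1% (about 760) showed 50% or more at least once.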
B: 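Growth of Mycobacterium tuberculosis over 4 days (cholesterol / DPPC medium with tyloxapol); the read-out is not stated. Concentration: 50 µM. The record gives no direction; compounds that gave an IC50 in retests scored well above the rest, so higher reads as more growth inhibition. About 69,000 compounds were tested under these conditions; 0.54% (about 370) showed 50% or more at least once.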

structure	A	B
[H][C@@]12COC[C@@H](CC(=O)N3CCN(C)CC3)[C@]1([H])CN(c1ccncn1)C2	1.179 & 18.16	2.694
O=C(c1cccc(Cl)c1)N1CCCC(Nc2ccc(F)cc2)C1 (stereo not drawn)	-7.495	0.03251 & 18.69
O=C(CNC(=O)C1(c2ccc(F)cc2F)CCC1)Nc1ccccn1	15.32 & 3.834	13.03
CCc1cc(N[C@@H](CC(C)C)C(N)=O)n2nc(C)c(C)c2n1	16.41	6.824
CC(C)N(C)C(=O)C1=NOC2(CCN(C(=O)c3cccn3C)C2)C1 (stereo not drawn)	-18.67	3.183
C=C(C)CN(c1cn[nH]c1)S(=O)(=O)c1cccc(C#N)c1	-3.242 & -29.14	6.536
O=C(Cn1cnc(-c2ccccc2)cc1=O)Nc1ccncc1	19.99	-2.18
CN(C)C(=O)C1CCCN1c1ccnc2ccsc12 (stereo not drawn)	-4.213 & 14.64	7.481
COCc1ccc(C(=O)N2CCN(CCS(C)(=O)=O)CC2)cc1	-3.772	-17.28
CCOCC1CN(CCc2ccccc2)Cc2c1cnn2C (stereo not drawn)	-9.29 & -18.79	-3.497 & -5.48
Cn1cccc1CN1CCC2(CCCN(C(=O)c3cnccn3)C2)C1.O=C(O)C(F)(F)F (stereo not drawn)	-32.28	-6.162
CCOC(=O)C1(CCOC)CCN(Cc2nccn2CC)CC1	-3.443	-5.467
O=C(O)C(F)(F)F.[H][C@@]12COC[C@]1([H])[C@H](OCc1csc(C)n1)CN2Cc1cnn(C)c1	-13.87	-19.09
CSCCC(O)C(=O)N1CCC(OCc2cccnc2)CC1 (stereo not drawn)	-17.5	4.568
CNC(=O)c1ccc(C2CCCN(C(=O)c3sc(C)nc3C)C2)nc1 (stereo not drawn)	1.957	-16.93
Cc1ccc(CN2CCCn3nnc(COCC4CC4)c3C2)s1.O=C(O)C(F)(F)F	-20.92	-23.29
CCCC(=O)N1CCCC(Cn2cc(-c3ccc(F)cc3)nn2)C1 (stereo not drawn)	9.484 & 0.4282	23.5
CS(=O)(=O)NCCCNc1ccc(C(F)(F)F)cc1C#N	22.62	-0.479
O=C(NCC(F)(F)F)c1nnn(-c2ccccc2)c1C(F)(F)F	-17.56	-7.692
Fc1cccc2c1CCC2NCc1cnc(N2CCOCC2)nc1 (stereo not drawn)	6.626	14.7
CC1Cc2ccccc2N1Cc1occc1C(=O)O (stereo not drawn)	-22.6	-23.86 & -11.76
CC(c1ncc(C(C)(C)C)o1)N1CCN(c2ccncc2)CC1 (stereo not drawn)	-12.09	-12.24
Cc1nccn1-c1ccc(CNC(=O)c2ccc(O)nc2)cn1	-11.31	0.5347 & -10.62
CN1CCN(C[C@@H]2CN(C(=O)NCC3CCCCC3)C[C@@H]2CO)CC1	23.4	-24.15
Cc1oc(C)c(C(=O)NCc2cccnc2N(C)C)c1C	-2.319	-6.051
COCc1cc(C[C@@H]2CC[C@H](O)[C@@H](CNCC(C)C)O2)no1	-1.926 & 5.118	-5.884
O=C(Nc1ccc(CCN2CCC(O)CC2)cc1)C1CCCCC1	5.985	-1.682
COC(=O)CNC(=O)C1(NC(=O)c2ccc3[nH]ncc3c2)CCCC1	-6.015	7.747
[H][C@]12CC[C@]([H])(CN(C(=O)Cc3sc(C)nc3C)C1)N(CC1CC1)C2	0.8249 & -9.987	4.77
CN(C)c1cc(C(=O)N2CCCN(c3cccnn3)CC2)ccn1	1.504	3.93
Cc1nc(CN(C)C2CCCN(c3ccccc3)C2)no1 (stereo not drawn)	39.32	8.657
O=C(c1ccc[nH]1)N1CCCC2(CCN(c3ccsc3)C2=O)C1 (stereo not drawn)	33.78	23.28
CN(C)S(=O)(=O)NCC1OCCc2cn(CC3CCOCC3)nc21 (stereo not drawn)	6.432	-6.85
Cn1ncc2c(N[C@H]3CC[C@@H](N)CC3)nc(C(C)(C)C)nc21	30.2	20.36
COc1c(CNC2CCN(CC(=O)NC3CC3)CC2)c(C)nn1C	-6.86	-2.91
Cc1ccnc(C2(C)CCCN2S(=O)(=O)c2c(C)noc2C)n1 (stereo not drawn)	-13.95	8.928 & -3.014
CC(C)(C)n1cc(CNC2CCN(C(=O)c3ccco3)CC2)cn1	1.833	-11.51
O=C(Nc1ccccc1)C1=NOC2(CCCN(C(=O)N3CCCC3)C2)C1 (stereo not drawn)	11.36	-9.735
Cn1ccc(C(=O)NCc2cccc(CN3CCCC3)c2)cc1=O	0.9455	0.1517
Cc1cccc(CN2CCc3ncnc(C4CC4)c3CC2)n1.O=C(O)C(F)(F)F	-25.07	8.134
O=C(NCCN1CCOCC1)c1nc2ccccc2c(=O)[nH]1	-31.26	-14.8
O=C(c1ccc(-c2ccc(O)nc2)s1)N1CCCCC1	-0.7831	-5.686
[H][C@@]12CCN(C(=O)NC3CC3)[C@]1([H])CCC(=O)N2Cc1csc(C)n1	-15.67	-19.64
CC(=O)Nc1cccc2c1ccn2CC(=O)Nc1n[nH]c(CC(C)C)n1	27.2	15.78
Cc1cc(N2CCCC(c3nccnc3N(C)C)C2)ncn1 (stereo not drawn)	-13.81	-1.165 & -5.221
Cc1c(C)n2c(SCC(=O)N3CCCCCC3)nnc2[nH]c1=O	-4.448 & -21.51	-18.67
Cc1nc[nH]c1-c1nccn1CCCN(C)C	-46.87	-17.42
[H][C@@]12COC[C@@H](CC(=O)NCc3cnc(C)cn3)[C@]1([H])CN(C1CCC1)C2	2.95 & -1.442	0.365

For reference, 6 entries once more:

| structure | A | B |
|---|---|---|
| `CC(c1ncc(C(C)(C)C)o1)N1CCN(c2ccncc2)CC1` (stereo not drawn) | -12.09 | -12.24 |
| `Cc1oc(C)c(C(=O)NCc2cccnc2N(C)C)c1C` | -2.319 | -6.051 |
| `CN(C)c1cc(C(=O)N2CCCN(c3cccnn3)CC2)ccn1` | 1.504 | 3.93 |
| `Cc1nccn1-c1ccc(CNC(=O)c2ccc(O)nc2)cn1` | -11.31 | 0.5347 & -10.62 |
| `CC(C)N(C)C(=O)C1=NOC2(CCN(C(=O)c3cccn3C)C2)C1` (stereo not drawn) | -18.67 | 3.183 |
| `Cc1cc(N2CCCC(c3nccnc3N(C)C)C2)ncn1` (stereo not drawn) | -13.81 | -1.165 & -5.221 |